These are yes or no findings as the source states them, for the method shown. In cells and extracts the contact can be indirect. Some binding calls cover weakened binding; strength is not graded here.
Target: RhoA (endogenous, LC319 lung-cancer cells) (human) (UniProt P61586)
Test: co-immunoprecipitation from LC319 extracts: IP with anti-ANLN antibody, immunoblot with anti-RhoA antibody

Chains of the proteins cited; added tags and fusions are not shown. Lines headed by an entry give the natural chain unless they say otherwise; changes in a name come on top.
UniProt P61586: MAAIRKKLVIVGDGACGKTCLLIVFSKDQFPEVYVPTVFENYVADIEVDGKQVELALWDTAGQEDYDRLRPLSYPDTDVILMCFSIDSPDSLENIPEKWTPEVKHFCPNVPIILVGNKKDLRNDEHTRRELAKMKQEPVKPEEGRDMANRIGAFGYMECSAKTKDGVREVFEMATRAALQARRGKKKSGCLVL

binding: binds
B1: ANLN (human anillin, actin binding protein) (protein)
chain: MDPFTEKLLERTRARRENLQRKMAERPTAAPRSMTHAKRARQPLSEASNQQPLSGGEEKSCTKPSPSKKRCSDNTEVEVSNLENKQPVESTSAKSCSPSPVSPQVQPQAADTISDSVAVPASLLGMRRGLNSRLEATAASSVKTRMQKLAEQRRRWDNDDMTDDIPESSLFSPMPSEEKAASPPRPLLSNASATPVGRRGRLANLAATICSWEDDVNHSFAKQNSVQEQPGTACLSKFSSASGASARINSSSVKQEATFCSQRDGDASLNKALSSSADDASLVNASISSSVKATSPVKSTTSITDAKSCEGQNPELLPKTPISPLKTGVSKPIVKSTLSQTVPSKGELSREICLQSQSKDKSTTPGGTGIKPFLERFGERCQEHSKESPARSTPHRTPIITPNTKAIQERLFKQDTSSSTTHLAQQLKQERQKELACLRGRFDKGNIWSAEKGGNSKSKQLETKQETHCQSTPLKKHQGVSKTQSLPVTEKVTENQIPAKNSSTEPKGFTECEMTKSSPLKITLFLEEDKSLKVTSDPKVEQKIEVIREIEMSVDDDDINSSKVINDLFSDVLEEGELDMEKSQEEMDQALAESSEEQEDALNISSMSLLAPLAQTVGVVSPESLVSTPRLELKDTSRSDESPKPGKFQRTRVPRAESGDSLGSEDRDLLYSIDAYRSQRFKETERPSIKQVIVRKEDVTSKLDEKNNAFPCQVNIKQKMQELNNEINMQQTVIYQASQALNCCVDEEHGKGSLEEAEAERLLLIATGKRTLLIDELNKLKNEGPQRKNKASPQSEFMPSKGSVTLSEIRLPLKADFVCSTVQKPDAANYYYLIILKAGAENMVATPLASTSNSLNGDALTFTTTFTLQDVSNDFEINIEVYSLVQKKDPSGLDKKKKTSKSKAITPKRLLTSITTKSNIHSSVMASPGGLSAVRTSNFALVGSYTLSLSSVGNTKFVLDKVPFLSSLEGHIYLKIKCQVNSSVEERGFLTIFEDVSGFGAWHRRWCVLSGNCISYWTYPDDEKRKNPIGRINLANCTSRQIEPANREFCARRNTFELITVRPQREDDRETLVSQCRDTLCVTKNWLSADTKEERDLWMQKLNQVLVDIRLWQPDACYKPIGKP

From US20090297500A1
